Laboratory results published in US20080207522A1, “Antimicrobial Peptides” (priority 2004, published 2008).
Not every detail of the peptide structures is certain; ends, links or a residue may be inferred. Ends that are not written are not given here.

System: Pseudomonas aeruginosa strain H1001
Experiment: Assay for the cleaved (free, soluble) peptides from cellulose support, luminescence killing assay
Assay type: cell-based
Set-up: key: 1: Peptides showing stronger killing than Bac2A at a 4 to 8-fold higher dilution; Peptides showing stronger killing compared to that of Bac2A at a 4-fold higher dilution; 3: Peptides similar to Bac2A; 4: Peptides similar to Bac2A at the highest concentration but demonstrating weaker killing at a 2-fold dilution; 5: Peptides giving very weak or no killing at a 2-fold dilution; 6: Peptides with weak killing activity at the highest concentration
Procedure: Assay for the cleaved peptides from cellulose support. The peptides were cleaved from the dried membrane in an ammonia atmosphere overnight, resulting in free peptides with an amidated C-terminus. The free peptides contained two β-alanines at the C-terminus, in addition to being amidated due to the linker between the cellulose membrane and the peptide sequence. The peptide spots were punched out and transferred in a 96-well microtiter plate. Serial dilutions were carried out from the membrane spots. Four rows were filled with four controls including two with Bac2A and two with of an unrelated peptide. The other eight rows were used for serial dilution steps of the peptide variants. […] The luminescence produced by the ATP dependent luciferase system were detected in a time dependent manner using a Tecan Spectra Fluor plus. […]
Peptide synthesis on cellulose is a very effective and inexpensive way to investigate many different peptide variants for one particular activity. […] This action can thus be monitored by detecting luminescence in a microtiter plate luminescence reader over time. […] After screening, the killing action was monitored with small amounts of the parent peptide Bac2A (2 μg/ml of free peptide). […]

Substance: RRAAVVLIVIRR-NH2 (C-terminus assumed) [Bac020]
- Soluble Class (Table 5, free peptides): 1
- Activity Class Soluble (free (cleaved) peptides, killing relative to Bac2A): 1
